Results are given in words; binding and its absence hold for the method and conditions named. Binding seen in cells or lysates may run through a third protein. Some binding calls cover weakened binding; strength is not graded here.
Target: T1, Fe65 (mouse (endogenous in mouse brain)) (UniProt Q9QXJ1)
T1 sequence: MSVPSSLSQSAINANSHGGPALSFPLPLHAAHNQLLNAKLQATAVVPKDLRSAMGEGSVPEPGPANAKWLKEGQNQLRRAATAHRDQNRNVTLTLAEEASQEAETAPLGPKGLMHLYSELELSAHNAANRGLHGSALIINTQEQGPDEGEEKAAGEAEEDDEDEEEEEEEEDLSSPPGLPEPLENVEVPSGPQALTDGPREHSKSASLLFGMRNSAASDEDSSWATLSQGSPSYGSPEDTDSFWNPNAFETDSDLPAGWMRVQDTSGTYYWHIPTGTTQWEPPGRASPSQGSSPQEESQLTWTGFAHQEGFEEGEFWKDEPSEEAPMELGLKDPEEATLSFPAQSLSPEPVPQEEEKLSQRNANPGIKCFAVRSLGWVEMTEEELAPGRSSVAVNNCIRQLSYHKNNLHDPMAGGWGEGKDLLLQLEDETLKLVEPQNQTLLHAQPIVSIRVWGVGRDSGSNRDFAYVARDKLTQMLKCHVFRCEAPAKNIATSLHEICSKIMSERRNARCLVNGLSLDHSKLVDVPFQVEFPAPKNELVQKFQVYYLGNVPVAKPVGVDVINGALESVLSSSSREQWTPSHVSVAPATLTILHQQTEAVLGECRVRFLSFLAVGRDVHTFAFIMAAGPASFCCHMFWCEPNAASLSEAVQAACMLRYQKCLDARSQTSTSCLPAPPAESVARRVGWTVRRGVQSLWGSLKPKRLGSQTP
Test: co-IP; IP with anti-Fe65 (I12) from membrane enriched mouse brain fraction (500 ug membrane protein; IP buffer 20 mM Hepes pH 8.0, 10% glycerol, 137 mM NaCl, 0.5% Triton-X-100, 2 mM EDTA; protein A/G, overnight), blot for full length APP (22C11); APP^wt/wt and APP^YG/YG mice

| binding | Substance |
| --- | --- |
| no binding | APP Y682G, from APP^YG/YG knock-in mouse brain (from UniProt P12023-2 18-695) |
| binds | Aβ-precursor protein (APP), wild type, from APP^wt/wt mouse brain (from UniProt P12023-2 18-695) |

Source: PMC2982846
